This is one part of the list.
compound: Cc1cc(ccc1-c1ccccc1)C(=O)N1CCCN(CC1)C(=O)CCl [compound 10]; assay: probe-labelled cysteine peptide fold change vs DMSO (competition) (log2 fold change); higher = less target engagement (more negative = stronger competition); conditions: 10 µM; THP-1; incubation time: 4 h
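Note: competitive profiling in live THP-1 cells: cysteine peptides tagged with an iodoacetamide desthiobiotin (IA-DTB) probe, intensity after compound treatment relative to DMSO-treated cells.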

By UniProt entry, the sequences of proteins in these tests, tags left out. Where a name states a change or a piece, a line headed by the entry shows the natural chain unless it says otherwise.
UniProt Q8WVX9: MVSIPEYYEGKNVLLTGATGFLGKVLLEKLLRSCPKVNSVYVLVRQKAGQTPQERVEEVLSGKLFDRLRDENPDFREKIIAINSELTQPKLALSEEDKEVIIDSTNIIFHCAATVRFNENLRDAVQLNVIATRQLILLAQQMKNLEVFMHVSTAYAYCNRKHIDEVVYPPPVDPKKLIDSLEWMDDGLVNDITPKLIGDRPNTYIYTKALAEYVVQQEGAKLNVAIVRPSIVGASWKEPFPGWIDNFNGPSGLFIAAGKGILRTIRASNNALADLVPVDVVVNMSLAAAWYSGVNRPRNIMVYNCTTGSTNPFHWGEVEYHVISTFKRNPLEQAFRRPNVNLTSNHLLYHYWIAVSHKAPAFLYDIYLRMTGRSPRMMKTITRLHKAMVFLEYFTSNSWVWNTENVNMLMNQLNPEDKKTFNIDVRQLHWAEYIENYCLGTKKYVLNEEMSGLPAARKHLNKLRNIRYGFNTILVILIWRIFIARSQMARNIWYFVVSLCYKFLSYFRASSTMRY
UniProt Q5VWN6: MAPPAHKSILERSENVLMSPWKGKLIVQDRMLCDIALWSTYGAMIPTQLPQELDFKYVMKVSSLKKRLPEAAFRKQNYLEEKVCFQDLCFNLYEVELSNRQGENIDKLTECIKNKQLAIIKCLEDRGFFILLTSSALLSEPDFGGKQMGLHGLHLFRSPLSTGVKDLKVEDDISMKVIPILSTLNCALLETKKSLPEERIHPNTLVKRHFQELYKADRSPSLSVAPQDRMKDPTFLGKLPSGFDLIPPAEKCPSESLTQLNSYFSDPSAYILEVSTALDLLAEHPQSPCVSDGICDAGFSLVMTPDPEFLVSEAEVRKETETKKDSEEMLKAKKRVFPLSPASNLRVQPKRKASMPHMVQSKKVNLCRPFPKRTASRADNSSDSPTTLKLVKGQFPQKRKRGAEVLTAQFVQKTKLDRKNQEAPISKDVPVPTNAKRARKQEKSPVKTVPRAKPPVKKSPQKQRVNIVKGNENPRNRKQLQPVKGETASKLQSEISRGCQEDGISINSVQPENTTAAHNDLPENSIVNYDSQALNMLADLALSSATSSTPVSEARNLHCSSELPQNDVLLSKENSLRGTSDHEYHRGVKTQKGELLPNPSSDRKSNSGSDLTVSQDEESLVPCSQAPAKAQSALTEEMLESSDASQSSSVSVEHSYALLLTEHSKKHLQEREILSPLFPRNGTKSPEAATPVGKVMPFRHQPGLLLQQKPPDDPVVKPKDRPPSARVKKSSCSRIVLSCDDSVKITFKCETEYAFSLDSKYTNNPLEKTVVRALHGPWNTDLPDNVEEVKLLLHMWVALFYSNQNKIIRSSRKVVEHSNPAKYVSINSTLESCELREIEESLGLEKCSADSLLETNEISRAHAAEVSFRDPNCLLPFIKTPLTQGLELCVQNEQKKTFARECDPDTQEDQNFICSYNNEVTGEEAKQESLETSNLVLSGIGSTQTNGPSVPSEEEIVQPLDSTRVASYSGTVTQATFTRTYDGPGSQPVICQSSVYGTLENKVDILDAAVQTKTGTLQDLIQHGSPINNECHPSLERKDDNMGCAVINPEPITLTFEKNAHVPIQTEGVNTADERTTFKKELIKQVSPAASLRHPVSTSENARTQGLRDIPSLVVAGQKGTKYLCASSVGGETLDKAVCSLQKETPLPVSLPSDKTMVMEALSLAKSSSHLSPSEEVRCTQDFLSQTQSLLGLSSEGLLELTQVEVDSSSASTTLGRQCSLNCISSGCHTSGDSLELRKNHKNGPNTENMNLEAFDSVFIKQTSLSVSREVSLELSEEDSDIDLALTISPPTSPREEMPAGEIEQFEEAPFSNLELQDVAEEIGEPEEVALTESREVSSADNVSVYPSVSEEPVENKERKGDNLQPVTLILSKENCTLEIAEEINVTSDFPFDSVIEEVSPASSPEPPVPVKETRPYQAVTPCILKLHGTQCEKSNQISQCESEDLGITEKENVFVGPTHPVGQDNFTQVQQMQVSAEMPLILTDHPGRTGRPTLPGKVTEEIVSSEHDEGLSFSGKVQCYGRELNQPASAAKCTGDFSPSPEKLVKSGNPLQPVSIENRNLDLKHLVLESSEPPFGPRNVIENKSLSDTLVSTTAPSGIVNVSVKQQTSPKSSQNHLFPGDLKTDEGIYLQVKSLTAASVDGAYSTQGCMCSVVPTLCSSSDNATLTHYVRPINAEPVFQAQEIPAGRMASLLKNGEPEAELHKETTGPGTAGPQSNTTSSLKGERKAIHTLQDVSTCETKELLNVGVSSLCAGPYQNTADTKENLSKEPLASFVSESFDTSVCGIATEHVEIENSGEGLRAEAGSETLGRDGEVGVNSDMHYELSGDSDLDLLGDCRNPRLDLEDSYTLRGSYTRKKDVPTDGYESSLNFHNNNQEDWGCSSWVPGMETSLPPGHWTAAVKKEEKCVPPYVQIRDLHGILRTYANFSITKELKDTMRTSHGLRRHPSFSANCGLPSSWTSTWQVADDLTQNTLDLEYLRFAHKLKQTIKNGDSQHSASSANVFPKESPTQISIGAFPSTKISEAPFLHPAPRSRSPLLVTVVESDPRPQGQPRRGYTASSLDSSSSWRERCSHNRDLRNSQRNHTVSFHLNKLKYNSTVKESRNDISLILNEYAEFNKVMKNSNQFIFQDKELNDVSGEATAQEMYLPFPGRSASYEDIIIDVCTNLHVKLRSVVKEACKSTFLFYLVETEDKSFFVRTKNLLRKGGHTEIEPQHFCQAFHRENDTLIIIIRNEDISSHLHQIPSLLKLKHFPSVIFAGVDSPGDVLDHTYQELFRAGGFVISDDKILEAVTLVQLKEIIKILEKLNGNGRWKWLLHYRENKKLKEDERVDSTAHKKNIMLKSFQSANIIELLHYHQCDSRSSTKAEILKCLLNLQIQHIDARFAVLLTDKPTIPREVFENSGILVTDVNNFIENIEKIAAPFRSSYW
UniProt P22087: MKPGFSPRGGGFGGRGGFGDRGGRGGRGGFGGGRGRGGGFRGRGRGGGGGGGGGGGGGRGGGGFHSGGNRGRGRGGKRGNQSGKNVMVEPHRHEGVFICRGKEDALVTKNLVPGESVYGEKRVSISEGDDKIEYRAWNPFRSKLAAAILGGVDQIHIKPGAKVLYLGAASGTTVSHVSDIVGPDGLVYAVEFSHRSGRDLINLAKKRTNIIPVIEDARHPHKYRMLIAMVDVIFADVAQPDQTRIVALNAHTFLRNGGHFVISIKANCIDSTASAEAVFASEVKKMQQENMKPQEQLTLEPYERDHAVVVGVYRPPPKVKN
UniProt Q9NX38: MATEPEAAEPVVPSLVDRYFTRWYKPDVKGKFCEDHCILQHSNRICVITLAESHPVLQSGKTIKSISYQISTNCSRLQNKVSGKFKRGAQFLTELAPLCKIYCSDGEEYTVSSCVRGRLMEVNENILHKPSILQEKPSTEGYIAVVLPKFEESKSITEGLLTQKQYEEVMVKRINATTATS
UniProt Q6PCT2: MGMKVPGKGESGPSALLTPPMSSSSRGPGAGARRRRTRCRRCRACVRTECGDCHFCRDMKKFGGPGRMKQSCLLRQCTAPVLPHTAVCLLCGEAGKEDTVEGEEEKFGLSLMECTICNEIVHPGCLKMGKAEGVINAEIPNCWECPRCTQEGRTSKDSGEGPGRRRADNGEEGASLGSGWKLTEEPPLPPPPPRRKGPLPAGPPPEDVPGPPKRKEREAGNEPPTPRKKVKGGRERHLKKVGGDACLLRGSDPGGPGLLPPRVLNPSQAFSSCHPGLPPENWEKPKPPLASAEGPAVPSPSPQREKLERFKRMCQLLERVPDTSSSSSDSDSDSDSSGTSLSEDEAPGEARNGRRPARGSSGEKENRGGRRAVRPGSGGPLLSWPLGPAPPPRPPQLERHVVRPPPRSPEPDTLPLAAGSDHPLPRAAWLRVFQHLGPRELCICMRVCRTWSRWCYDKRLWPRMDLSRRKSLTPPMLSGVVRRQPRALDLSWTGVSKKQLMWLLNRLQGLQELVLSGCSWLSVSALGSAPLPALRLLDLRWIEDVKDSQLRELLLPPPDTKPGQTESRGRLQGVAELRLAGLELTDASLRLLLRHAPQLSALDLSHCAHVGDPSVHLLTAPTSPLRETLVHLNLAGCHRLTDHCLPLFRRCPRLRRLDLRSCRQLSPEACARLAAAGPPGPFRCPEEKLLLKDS
UniProt Q9UK99: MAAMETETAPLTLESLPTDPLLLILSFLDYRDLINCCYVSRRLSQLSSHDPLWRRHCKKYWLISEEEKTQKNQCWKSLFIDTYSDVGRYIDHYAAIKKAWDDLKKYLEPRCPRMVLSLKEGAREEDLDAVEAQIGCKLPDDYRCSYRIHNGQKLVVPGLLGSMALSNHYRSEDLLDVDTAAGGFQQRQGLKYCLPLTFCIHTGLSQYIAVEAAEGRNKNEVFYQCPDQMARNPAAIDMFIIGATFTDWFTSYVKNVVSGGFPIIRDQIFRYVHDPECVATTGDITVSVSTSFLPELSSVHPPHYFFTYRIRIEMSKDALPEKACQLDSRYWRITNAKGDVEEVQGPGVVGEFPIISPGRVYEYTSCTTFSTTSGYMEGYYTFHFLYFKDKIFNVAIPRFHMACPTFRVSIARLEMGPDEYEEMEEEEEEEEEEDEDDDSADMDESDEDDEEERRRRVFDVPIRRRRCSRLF
UniProt Q9NVI1: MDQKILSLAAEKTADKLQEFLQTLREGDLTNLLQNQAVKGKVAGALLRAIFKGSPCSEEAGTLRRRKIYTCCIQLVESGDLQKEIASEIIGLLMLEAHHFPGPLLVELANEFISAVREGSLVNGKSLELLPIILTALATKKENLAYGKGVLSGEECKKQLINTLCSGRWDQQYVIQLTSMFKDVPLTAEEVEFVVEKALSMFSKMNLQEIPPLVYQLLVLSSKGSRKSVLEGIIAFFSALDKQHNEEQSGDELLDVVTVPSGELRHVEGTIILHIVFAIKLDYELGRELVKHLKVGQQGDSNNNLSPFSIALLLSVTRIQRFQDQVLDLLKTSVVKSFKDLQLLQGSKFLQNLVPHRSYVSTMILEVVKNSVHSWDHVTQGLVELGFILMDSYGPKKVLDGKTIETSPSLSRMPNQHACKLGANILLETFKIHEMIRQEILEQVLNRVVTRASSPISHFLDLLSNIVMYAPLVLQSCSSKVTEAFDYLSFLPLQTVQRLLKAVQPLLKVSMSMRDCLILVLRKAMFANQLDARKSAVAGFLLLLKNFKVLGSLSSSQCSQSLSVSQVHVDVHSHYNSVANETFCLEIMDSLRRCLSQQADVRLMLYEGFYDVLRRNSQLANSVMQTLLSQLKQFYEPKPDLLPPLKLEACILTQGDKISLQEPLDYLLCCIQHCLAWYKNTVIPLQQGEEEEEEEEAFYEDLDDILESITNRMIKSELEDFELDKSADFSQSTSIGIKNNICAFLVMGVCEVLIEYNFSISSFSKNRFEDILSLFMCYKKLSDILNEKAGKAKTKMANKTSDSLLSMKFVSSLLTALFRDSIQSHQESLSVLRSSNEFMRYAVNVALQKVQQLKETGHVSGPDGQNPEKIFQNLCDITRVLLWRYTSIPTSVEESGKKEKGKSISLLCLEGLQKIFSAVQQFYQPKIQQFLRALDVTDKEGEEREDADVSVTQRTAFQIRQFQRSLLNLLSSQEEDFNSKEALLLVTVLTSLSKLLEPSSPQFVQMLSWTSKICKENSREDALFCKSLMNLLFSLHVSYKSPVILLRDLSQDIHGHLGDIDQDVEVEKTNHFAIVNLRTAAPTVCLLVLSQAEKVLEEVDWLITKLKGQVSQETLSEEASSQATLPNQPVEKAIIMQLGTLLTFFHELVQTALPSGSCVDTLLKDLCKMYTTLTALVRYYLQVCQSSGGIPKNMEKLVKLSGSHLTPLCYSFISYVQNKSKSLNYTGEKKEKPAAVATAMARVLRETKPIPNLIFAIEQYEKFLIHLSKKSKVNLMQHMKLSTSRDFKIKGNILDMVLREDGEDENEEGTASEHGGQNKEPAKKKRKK
UniProt Q9UK73, whole entry, looked up: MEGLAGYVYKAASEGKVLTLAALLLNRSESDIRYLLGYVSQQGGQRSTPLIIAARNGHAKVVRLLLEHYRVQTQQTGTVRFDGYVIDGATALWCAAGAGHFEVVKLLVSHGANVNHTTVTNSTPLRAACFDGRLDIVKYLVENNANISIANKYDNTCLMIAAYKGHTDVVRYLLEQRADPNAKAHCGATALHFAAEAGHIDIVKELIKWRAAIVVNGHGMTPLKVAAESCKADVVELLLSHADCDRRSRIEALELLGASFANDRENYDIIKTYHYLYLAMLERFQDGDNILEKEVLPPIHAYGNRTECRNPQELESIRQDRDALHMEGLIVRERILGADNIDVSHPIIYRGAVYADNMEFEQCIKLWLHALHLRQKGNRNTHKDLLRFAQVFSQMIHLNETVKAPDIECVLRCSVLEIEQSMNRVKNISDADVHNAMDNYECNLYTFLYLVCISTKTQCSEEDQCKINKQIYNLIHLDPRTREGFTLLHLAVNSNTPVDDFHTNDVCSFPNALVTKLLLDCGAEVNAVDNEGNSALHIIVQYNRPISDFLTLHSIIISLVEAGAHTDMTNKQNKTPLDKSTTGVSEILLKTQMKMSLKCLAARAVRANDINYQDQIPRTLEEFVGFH

Target | probe-labelled cysteine peptide fold change
FAR1_Q8WVX9_111_EVIIDSTNIIFHCAATVR (UniProt Q8WVX9) | 0.346
FAM208B_Q5VWN6_1441_SNQISQCESEDLGITEK (UniProt Q5VWN6) | -0.0905
FBL_P22087_99_HEGVFICR (UniProt P22087) | -0.125
FAM206A_Q9NX38_37_FCEDHCILQHSNR (UniProt Q9NX38) | -0.00402
FBXL19_Q6PCT2_125_FGLSLMECTICNEIVHPGCLK (UniProt Q6PCT2) | 0.208
FBXL18_Q96ME1_557_HLTLAQLPSVLTGSGLVNIGLQCQQLR (UniProt Q96ME1) | -0.293
FBXO3_Q9UK99_136_EGAREEDLDAVEAQIGCK (UniProt Q9UK99) | -0.311
FBN2_P35556_1052_EYETLCPR (UniProt P35556) | 0.0519
FGFR1OP_O95684-3_133_TITQLECLLSIGALHFK (UniProt O95684) | -0.356
FCGRT_P55899_182_ELTFLLFSCPHR (UniProt P55899) | -0.15
FBXW2_Q9UKT8_189_LWDVSTGQCVYGIQTHTCAAVK (UniProt Q9UKT8) | 0.065
FERMT3_Q86UX7_128_ASFSQPLFQAVAAICR (UniProt Q86UX7) | -0.0443
FBXO22_Q8NEZ5_378_CNEVKDDDLFHSYTTIMALIHLGSSK (UniProt Q8NEZ5) | -0.000319
FAR2_Q96K12_170_HIDEVIYPCPVEPK (UniProt Q96K12) | -0.0319
FERMT2_Q96AC1_426_GCEVTPDVNISGQK (UniProt Q96AC1) | -0.174
FGD3_Q5JSP0_184_RLHLLDQVFCTR (UniProt Q5JSP0) | -0.128
FBXO30_Q8TB52_396_NVDVLSFSHAPSFNFLSNSCWSK (UniProt Q8TB52) | 0.0366
FCF1_Q9Y324_93_AKLDLVQSMMDCLYAK (UniProt Q9Y324) | 0.339
FANCI_Q9NVI1_594_CLSQQADVR (UniProt Q9NVI1) | 0.0589

same assay, conditions: 50 µM; THP-1; incubation time: 4 h

Target | probe-labelled cysteine peptide fold change
FEN1_P39748_141_QHNDECK (UniProt P39748) | -0.268
FASN_P49327_1471_CVLLSNLSSTSHVPEVDPGSAELQK (UniProt P49327) | -0.108
FBXO22_Q8NEZ5_365_KFFPSVPLFGFFGNGEIGCDR (UniProt Q8NEZ5) | 0.0353
FANCI_Q9NVI1_650_LEACILTQGDK (UniProt Q9NVI1) | -0.113
FEM1B_Q9UK73_409_APDIECVLR (UniProt Q9UK73) | -0.925
FBXL20_Q96IG2_135_TTDATCTSLSK (UniProt Q96IG2) | -0.077
FASN_P49327_779_RGLKPSCTIIPLMK (UniProt P49327) | -0.499
FAM98B_Q52LJ0_216+220_INDALSCEYECR (UniProt Q52LJ0) | -0.505
FGD3_Q5JSP0_284_QEVCGNLTLQHHMLEPVQR (UniProt Q5JSP0) | -0.0624
FAM208B_Q5VWN6_873_AHAAEVSFRDPNCLLPFIK (UniProt Q5VWN6) | -0.15
FBXL20_Q96IG2_272_LQSLCASGCSNITDAILNALGQNCPR (UniProt Q96IG2) | -0.238
FEM1B_Q9UK73_244_ADVVELLLSHADCDR (UniProt Q9UK73) | -0.389
FARSB_Q9NSD9_76_YDLLCLEGLVR (UniProt Q9NSD9) | 0.21
FASN_P49327_2369_AKLTPGCEAEAETEAICFFVQQFTDMEHNR (UniProt P49327) | -0.887
FGD4_Q96M96_234_LDLLDQVFYCK (UniProt Q96M96) | 0.154
FAM208A_Q9UK61_761_QQQDTCNSGIADIHR (UniProt Q9UK61) | -0.758
FAR1_Q8WVX9_111_EVIIDSTNIIFHCAATVR (UniProt Q8WVX9) | 0.38
FAM208B_Q5VWN6_1441_SNQISQCESEDLGITEK (UniProt Q5VWN6) | 0.119
FBL_P22087_99_HEGVFICR (UniProt P22087) | 0.0609
FAM206A_Q9NX38_37_FCEDHCILQHSNR (UniProt Q9NX38) | -0.338
FBXL19_Q6PCT2_125_FGLSLMECTICNEIVHPGCLK (UniProt Q6PCT2) | 0.515
FBXL18_Q96ME1_557_HLTLAQLPSVLTGSGLVNIGLQCQQLR (UniProt Q96ME1) | -0.335
FBXO3_Q9UK99_136_EGAREEDLDAVEAQIGCK (UniProt Q9UK99) | -0.547
FBN2_P35556_1052_EYETLCPR (UniProt P35556) | 0.134
